The text below walks through data of publication doi:10.1101/2022.01.25.477668.

Sequences of proteins named here, by UniProt entry; tags and fusion partners are left off.
UniProt Q61025: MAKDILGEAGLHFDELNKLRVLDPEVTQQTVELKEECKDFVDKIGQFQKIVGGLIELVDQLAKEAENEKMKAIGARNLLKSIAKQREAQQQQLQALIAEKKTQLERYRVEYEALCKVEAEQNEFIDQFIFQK

No constants are given. Whether binding was seen depends on the method and setting. In cells and extracts the contact can be indirect. Here binding means that the protein was enriched with, or labelled near, the bait; the list need not be complete.

The experiment has as its target T1, Cep78 (endogenous, mouse testis) (mouse (endogenous in testis)) (UniProt Q6IRU7).
T1 sequence: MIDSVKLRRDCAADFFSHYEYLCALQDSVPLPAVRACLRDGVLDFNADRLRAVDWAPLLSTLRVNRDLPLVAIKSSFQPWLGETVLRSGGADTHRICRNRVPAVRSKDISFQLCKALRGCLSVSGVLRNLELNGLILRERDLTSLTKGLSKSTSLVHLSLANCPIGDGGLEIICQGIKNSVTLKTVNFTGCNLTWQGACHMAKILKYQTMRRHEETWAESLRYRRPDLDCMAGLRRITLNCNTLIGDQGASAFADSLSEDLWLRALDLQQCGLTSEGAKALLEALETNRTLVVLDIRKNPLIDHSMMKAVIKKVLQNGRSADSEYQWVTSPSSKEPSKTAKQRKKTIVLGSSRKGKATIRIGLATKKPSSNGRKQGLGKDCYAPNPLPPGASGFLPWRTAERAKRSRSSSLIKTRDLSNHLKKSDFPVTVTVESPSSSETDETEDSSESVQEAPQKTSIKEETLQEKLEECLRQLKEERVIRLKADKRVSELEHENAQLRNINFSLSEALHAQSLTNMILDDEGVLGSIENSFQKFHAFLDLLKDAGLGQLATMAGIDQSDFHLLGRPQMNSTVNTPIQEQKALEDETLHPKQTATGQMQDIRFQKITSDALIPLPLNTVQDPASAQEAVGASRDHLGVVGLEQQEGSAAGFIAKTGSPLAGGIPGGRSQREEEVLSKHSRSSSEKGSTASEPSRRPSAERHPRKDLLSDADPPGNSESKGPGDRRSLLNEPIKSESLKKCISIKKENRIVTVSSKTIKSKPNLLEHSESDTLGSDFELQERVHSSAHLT
Description: affinity purification with mass spectrometry.

In the case of “Ift20 (endogenous, mouse testis) (from UniProt Q61025 1-132)”, the binding result is “binds”.

B1: Ttc21a (endogenous, mouse testis) (protein, UniProt Q8C0S4 1-1314)
chain: MSSDDSSLMASIIYYSQEKYFHHVLQAANVGLERYSSDPALQFFRAYGILGEDHIHDAISELEGIQSHPDTSLCAVIALLSAHKSCDTIDIEAVQELESSLKEIRRSASSTALYYASLFLWFMGHHDKAREYVDHMLKVSSGSKEGYVLKGWVDLTSSKPHVVKKSIKYLEQGTQDTKDVLGLMGKATYFMTQQNFSGALEVANQVTLACSNFLPALVLKMKLFLARQDWDQTIETGQRILEKDENNIDAWQILAVHELVKEGNTDRAADRVRNLIKALETGEPHNPNLHLKKILVISRLCGRHQVVHRLVSGFLERIFMATPSCALVATELGYLFILHQQVKEACLWYKEAMKLEENRLAALAGSIWCQILQGQLEEAAHQLEFLKEVQQSLGKSELLVFLQALVAAKKQRLEQEATALLKEAVEVHFSSMQGLALSPEYFEKLDPLFLVCIAKEYLHFCPKQPRSPGQLVSPLLKQVAMILSPVVKVAPAMMEPLYVTAQVKFLSGELENAQSTLQRCLELDPTFVDAHLLMSQIYLAQGNFAMCSHCLELGVSHNFQVRDHPLYHFIKARALNKTGDYAEAIKTLKMIIKVPTSKAEEGRKSQSPSVRPSERASILLELVEALRLNGELHEATKIMQDAINEFSGTPEEMRITVANVDLALSKGNVDLALNMLRGITPKQPCYTEAKEKMASIYLHTRKDVRLYIGCYVELCEHLPGPHSSLLLGDAFMNIQEPEKALEVYDEAYRKNPHDASLVSRIGQAYVKTHQYAKAINYYEAAQKISGQDFLCCELAELLLKLKKYHKAEKVLKQALERDSGVKDIPSMINEVKCLLLLAKVYKSHKKEEVMETLNLALDLQSRILKRVPLEQSEMIPFQNQLAASICIQIGEHHLAEKDYDSALKSYKDALAYSPTDSKVVLELAHLYLLLGQLDLCEQRCAPLLEMEQTHERAAVMLADLMFRRQNYETAINLYHQVLEKAPDNFLVLNKLVDLLRRSGKLEEAPAFFELAKKVSSRVPLEPGFNYCQGIYFWHIGQPNEALRFLNKARKDSTWGQLATCYMVQICLNPDNEIVGGEAFESLVGDSNSASRKESQQHGVRTAEKLLREFYPHSESGQTQLRLLQNLCLLATREKANVEVALGAFIEMAQAEKDSIPALLAMAQAYILLKQVPKARTQLKRLAKVPWTVDEAEDLEKSWLLLADIYCQGGKFDLALELLRRCLQYNKSCCRAYEYMGFIMEKEQSYKDAATNYELAWKYSHQANPAIGFKLAFNYLKDKKFVDAIEVCHSVLTEHPKYPKIREEILEKAQGSLRP
For B1, the binding entry was “binds”.
